According to publication PMC12837915:
These are yes or no findings as the source states them, for the method shown. In cells and extracts the contact can be indirect. Some results given as binding are weak or reduced against the parent protein; the word gives no strength. Tags and fused reporters may be left off the sequences shown.

Amino acid sequences for entries named in this document (tags omitted).
UniProt P48431: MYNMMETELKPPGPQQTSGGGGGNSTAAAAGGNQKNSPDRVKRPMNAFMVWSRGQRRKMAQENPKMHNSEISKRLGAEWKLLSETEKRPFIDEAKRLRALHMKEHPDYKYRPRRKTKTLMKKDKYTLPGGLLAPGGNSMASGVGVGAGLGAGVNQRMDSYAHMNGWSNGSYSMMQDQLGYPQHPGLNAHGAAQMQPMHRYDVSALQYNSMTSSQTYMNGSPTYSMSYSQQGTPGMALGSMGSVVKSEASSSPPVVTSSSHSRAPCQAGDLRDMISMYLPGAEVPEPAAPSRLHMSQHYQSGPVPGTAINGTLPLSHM

Biological target: SOX2 (sex-determining region Y box 2) (human (endogenous in SAS)) (UniProt P48431)
Assay: co-IP; lysates of GST-ENOX2-overexpressing SAS cells; non-immune IgG or antibodies against GST and SOX2 on Protein G agarose, overnight at 4 °C; lysis buffer 20 mM Tris-HCl pH 7.4, 100 mM NaCl, 5 mM EDTA; Western blot with anti-GST or anti-SOX2

binding: binds
B1: GST-ENOX2 (human tumor-associated NADH oxidase) (protein, UniProt Q16206 1-610)
chain: MQRDFRWLWVYEIGYAADNSRTLNVDSTAMTLPMSDPTAWATAMNNLGMAPLGIAGQPILPDFDPALGMMTGIPPITPMMPGLGIVPPPIPPDMPVVKEIIHCKSCTLFPPNPNLPPPATRERPPGCKTVFVGGLPENGTEQIIVEVFEQCGEIIAIRKSKKNFCHIRFAEEYMVDKALYLSGYRIRLGSSTDKKDTGRLHVDFAQARDDLYEWECKQRMLAREERHRRRMEEERLRPPSPPPVVHYSDHECSIVAEKLKDDSKFSEAVQTLLTWIERGEVNRRSANNFYSMIQSANSHVRRLVNEKAAHEKDMEEAKEKFKQALSGILIQFEQIVAVYHSASKQKAWDHFTKAQRKNISVWCKQAEEIRNIHNDELMGIRREEEMEMSDDEIEEMTETKETEESALVSQAEALKEENDSLRWQLDAYRNEVELLKQEQGKVHREDDPNKEQQLKLLQQALQGMQQHLLKVQEEYKKKEAELEKLKDDKLQVEKMLENLKEKESCASRLCASNQDSEYPLEKTMNSSPIKSEREALLVGIISTFLHVHPFGASIEYICSYLHRLDNKICTSDVECLMGRLQHTFKQEMTGVGASLEKRWKFCGFEGLKLT
